The source of these data is US11850283B2, “Liponucleotide-based therapy for asthma” (priority 2017, dated 2023).

This data set can be described thus: i.p. CDP-CHO treatment of mock-inoculated mice, lung function. The data set is classed as in vivo. The following applies: day 6, CDP-CHO 100 μg/mouse i.p.

The structures appear in SMILES notation.

Regarding `C[N+](C)(C)CCO[P@TB16](=O)(O)O[P@TB16](=O)(O)OC[C@H]1O[C@@H](n2ccc(N)nc2=O)[C@H](O)[C@@H]1O` [CDP-CHO, CDP-choline], the “HR (bpm)” value is 730 ± 10 bpm and the “SaO2 (%)” value came to 99.0 ± 0.2%.
